{
  "source": "patent US20070134261A1",
  "about": "“Effectors of innate immunity” (priority 2001, published 2007)",
  "test_system": "human CD14+ monocytes",
  "test": "Human 21K DNA microarrays of CD14+ monocytes from PBMC stimulated with SEQ ID NO: 7 and/or LPS (Tables 69-72)",
  "format": "cell-based",
  "note": "Not every detail of the peptide structures is certain; ends, links or a residue may be inferred. No end group written: not given here.",
  "data": [
    {"sequence": "KSRIVPAIPVSLL [SEQ ID NO: 7]", "values": [
      {"measurement": "Fold Change SEQ ID NO: 7", "setting": "gene PKHD1L1", "result": 1.8},
      {"measurement": "Fold Change by LPS + SEQ 7", "setting": "gene PKIG, human monocytes", "result": 3.4, "unit": "fold"},
      {"measurement": "Fold Change by LPS + SEQ 7", "setting": "gene PL6", "result": 2.1, "unit": "fold"},
      {"measurement": "Fold Change by LPS + SEQ 7", "setting": "gene PLA1A, human monocytes", "result": 3.6, "unit": "fold"},
      {"measurement": "Fold Change by LPS + SEQ 7", "setting": "gene PLA2G4C", "result": "−1.7", "unit": "fold"},
      {"measurement": "Fold Change SEQ ID NO: 7", "setting": "gene PLA2G5", "result": "−1.5"},
      {"measurement": "Fold Change by LPS + SEQ 7", "setting": "gene PLA2G5", "result": "−1.6", "unit": "fold"},
      {"measurement": "Fold Change by LPS + SEQ 7", "setting": "gene PLAC1", "result": 1.5, "unit": "fold"},
      {"measurement": "Fold Change SEQ ID NO: 7", "setting": "gene PLAC8", "result": 1.6},
      {"measurement": "Fold Change by LPS + SEQ 7", "setting": "gene PLAC8", "result": 2.2, "unit": "fold"},
      {"measurement": "Fold Change by LPS + SEQ 7", "setting": "gene PLAGL2", "result": "−2.2", "unit": "fold"},
      {"measurement": "Fold Change SEQ ID NO: 7", "setting": "gene PLAUR", "result": 1.8},
      {"measurement": "Fold Change by LPS + SEQ 7", "setting": "gene PLAUR, human monocytes", "result": 2.8, "unit": "fold"},
      {"measurement": "Fold Change by LPS + SEQ 7", "setting": "gene PLCG1, human monocytes", "result": 17.0, "unit": "fold"},
      {"measurement": "Fold Change by LPS + SEQ 7", "setting": "gene PLEK", "result": 1.7, "unit": "fold"},
      {"measurement": "Fold Change by LPS + SEQ 7", "setting": "gene PLEKHA3", "result": 1.5, "unit": "fold"},
      {"measurement": "Fold Change by LPS + SEQ 7", "setting": "gene PLEKHF2", "result": 2.0, "unit": "fold"},
      {"measurement": "Fold Change by LPS + SEQ 7", "setting": "gene PLK4, human monocytes", "result": 2.8, "unit": "fold"},
      {"measurement": "Fold Change by LPS + SEQ 7", "setting": "gene PLXDC2", "result": "−1.7", "unit": "fold"},
      {"measurement": "Fold Change SEQ ID NO: 7", "setting": "gene PLXNA3", "result": 1.5},
      {"measurement": "Fold Change by LPS + SEQ 7", "setting": "gene PLXNA4", "result": 1.6, "unit": "fold"},
      {"measurement": "Fold Change by LPS + SEQ 7", "setting": "gene PMAIP1, human monocytes", "result": 4.7, "unit": "fold"},
      {"measurement": "Fold Change by LPS + SEQ 7", "setting": "gene PMM2", "result": 1.9, "unit": "fold"},
      {"measurement": "Fold Change by LPS + SEQ 7", "setting": "gene PMPCB, human monocytes", "result": 12.3, "unit": "fold"},
      {"measurement": "Fold Change by LPS + SEQ 7", "setting": "gene PMSCL1, human monocytes", "result": 2.7, "unit": "fold"},
      {"measurement": "Fold Change by LPS + SEQ 7", "setting": "gene PNMA2", "result": "−1.6", "unit": "fold"},
      {"measurement": "Fold Change by LPS + SEQ 7", "setting": "gene PNRC1", "result": 2.0, "unit": "fold"},
      {"measurement": "Fold Change SEQ ID NO: 7", "setting": "gene POLR1B", "result": 1.8},
      {"measurement": "Fold Change by LPS + SEQ 7", "setting": "gene POLR1B", "result": 1.6, "unit": "fold"},
      {"measurement": "Fold Change SEQ ID NO: 7", "setting": "gene POLR2D", "result": 2.1},
      {"measurement": "Fold Change by LPS + SEQ 7", "setting": "gene POLR2D", "result": 1.7, "unit": "fold"},
      {"measurement": "Fold Change by LPS + SEQ 7", "setting": "gene POLR2L", "result": "−1.5", "unit": "fold"},
      {"measurement": "Fold Change by LPS + SEQ 7", "setting": "gene POU1F1, human monocytes", "result": 64.2, "unit": "fold"},
      {"measurement": "Fold Change by LPS + SEQ 7", "setting": "gene PPAP2A", "result": "−1.5", "unit": "fold"},
      {"measurement": "Fold Change by LPS + SEQ 7", "setting": "gene PPAP2B, human monocytes", "result": 7.9, "unit": "fold"},
      {"measurement": "Fold Change by LPS + SEQ 7", "setting": "gene PPAT", "result": "−1.7", "unit": "fold"},
      {"measurement": "Fold Change SEQ ID NO: 7", "setting": "gene PPFIA3", "result": "−1.9"},
      {"measurement": "Fold Change SEQ ID NO: 7", "setting": "gene PPIC", "result": 1.7},
      {"measurement": "Fold Change by LPS + SEQ 7", "setting": "gene PPM1A", "result": "−1.7", "unit": "fold"},
      {"measurement": "Fold Change SEQ ID NO: 7", "setting": "gene PPM1D", "result": 1.7},
      {"measurement": "Fold Change by LPS + SEQ 7", "setting": "gene PPP1CB", "result": 2.2, "unit": "fold"},
      {"measurement": "Fold Change by LPS + SEQ 7", "setting": "gene PPP1R15B", "result": 1.5, "unit": "fold"},
      {"measurement": "Fold Change SEQ ID NO: 7", "setting": "gene PPP2CA", "result": 1.5},
      {"measurement": "Fold Change SEQ ID NO: 7", "setting": "gene PPP2R2C", "result": 1.5},
      {"measurement": "Fold Change by LPS + SEQ 7", "setting": "gene PRDM2, human monocytes", "result": 2.4, "unit": "fold"},
      {"measurement": "Fold Change by LPS + SEQ 7", "setting": "gene PRDM10", "result": 1.7, "unit": "fold"},
      {"measurement": "Fold Change SEQ ID NO: 7", "setting": "gene PRKWNK4", "result": "−1.6"},
      {"measurement": "Fold Change by LPS + SEQ 7", "setting": "gene PRM2", "result": "−1.6", "unit": "fold"},
      {"measurement": "Fold Change by LPS + SEQ 7", "setting": "gene PROZ, human monocytes", "result": 2.4, "unit": "fold"},
      {"measurement": "Fold Change by LPS + SEQ 7", "setting": "gene PRPF3", "result": 2.2, "unit": "fold"},
      {"measurement": "Fold Change by LPS + SEQ 7", "setting": "gene PRRG1", "result": "−1.5", "unit": "fold"},
      {"measurement": "Fold Change by LPS + SEQ 7", "setting": "gene PRRX1", "result": 1.7, "unit": "fold"},
      {"measurement": "Fold Change by LPS + SEQ 7", "setting": "gene PSMA1, human monocytes", "result": 2.7, "unit": "fold"},
      {"measurement": "Fold Change SEQ ID NO: 7", "setting": "gene PSMB7", "result": 1.7},
      {"measurement": "Fold Change SEQ ID NO: 7", "setting": "gene PTBP1", "result": 1.6},
      {"measurement": "Fold Change by LPS + SEQ 7", "setting": "gene PTGDS2, PGDS, human monocytes", "result": 13.3, "unit": "fold"},
      {"measurement": "Fold Change by LPS + SEQ 7", "setting": "gene PTGER3, human monocytes", "result": 11.8, "unit": "fold"},
      {"measurement": "Fold Change by LPS + SEQ 7", "setting": "gene PTGIS, human monocytes", "result": 5.5, "unit": "fold"},
      {"measurement": "Fold Change by LPS + SEQ 7", "setting": "gene PTGS2, human monocytes", "result": 3.8, "unit": "fold"},
      {"measurement": "Fold Change by LPS + SEQ 7", "setting": "gene PTP4A3, human monocytes", "result": 2.3, "unit": "fold"},
      {"measurement": "Fold Change by LPS + SEQ 7", "setting": "gene PTPN4", "result": 1.7, "unit": "fold"},
      {"measurement": "Fold Change SEQ ID NO: 7", "setting": "gene PTPN18", "result": 1.6},
      {"measurement": "Fold Change SEQ ID NO: 7", "setting": "gene PTPRB", "result": "−1.7"},
      {"measurement": "Fold Change by LPS + SEQ 7", "setting": "gene PTPRCAP, human monocytes", "result": 9.7, "unit": "fold"},
      {"measurement": "Fold Change SEQ ID NO: 7", "setting": "gene PTPRF", "result": 1.8},
      {"measurement": "Fold Change SEQ ID NO: 7", "setting": "gene PTS", "result": 2.5},
      {"measurement": "Fold Change by LPS + SEQ 7", "setting": "gene PTS, human monocytes", "result": 3.1, "unit": "fold"},
      {"measurement": "Fold Change by LPS + SEQ 7", "setting": "gene PWP2H, human monocytes", "result": 2.7, "unit": "fold"},
      {"measurement": "Fold Change by LPS + SEQ 7", "setting": "gene Q7M4L6", "result": 1.6, "unit": "fold"},
      {"measurement": "Fold Change by LPS + SEQ 7", "setting": "gene Q7RTU0, human monocytes", "result": 8.4, "unit": "fold"},
      {"measurement": "Fold Change by LPS + SEQ 7", "setting": "gene Q7Z2R6", "result": 1.6, "unit": "fold"},
      {"measurement": "Fold Change by LPS + SEQ 7", "setting": "gene Q7Z3P6", "result": "−1.5", "unit": "fold"},
      {"measurement": "Fold Change SEQ ID NO: 7", "setting": "gene Q7Z5J8", "result": 1.8},
      {"measurement": "Fold Change by LPS + SEQ 7", "setting": "gene Q7Z5V3, human monocytes", "result": 3.8, "unit": "fold"},
      {"measurement": "Fold Change by LPS + SEQ 7", "setting": "gene Q7Z5X7", "result": 2.2, "unit": "fold"},
      {"measurement": "Fold Change by LPS + SEQ 7", "setting": "gene Q7Z570", "result": "−1.7", "unit": "fold"},
      {"measurement": "Fold Change by LPS + SEQ 7", "setting": "gene Q7Z620, human monocytes", "result": 4.4, "unit": "fold"},
      {"measurement": "Fold Change by LPS + SEQ 7", "setting": "gene Q8IUT6", "result": "−1.9", "unit": "fold"},
      {"measurement": "Fold Change by LPS + SEQ 7", "setting": "gene Q8IUY5", "result": "−1.5", "unit": "fold"},
      {"measurement": "Fold Change by LPS + SEQ 7", "setting": "gene Q8IUZ5", "result": 1.6, "unit": "fold"},
      {"measurement": "Fold Change by LPS + SEQ 7", "setting": "gene Q8IVG4", "result": 2.0, "unit": "fold"},
      {"measurement": "Fold Change SEQ ID NO: 7", "setting": "gene Q8IVU3", "result": 2.2},
      {"measurement": "Fold Change by LPS + SEQ 7", "setting": "gene Q8IWC2", "result": "−1.6", "unit": "fold"},
      {"measurement": "Fold Change by LPS + SEQ 7", "setting": "gene Q8IXK7", "result": "−1.6", "unit": "fold"},
      {"measurement": "Fold Change SEQ ID NO: 7", "setting": "gene Q8IXL9", "result": "−1.6"},
      {"measurement": "Fold Change by LPS + SEQ 7", "setting": "gene Q8IXM2", "result": "−2.0", "unit": "fold"},
      {"measurement": "Fold Change SEQ ID NO: 7", "setting": "gene Q8IY68", "result": "−2.3"},
      {"measurement": "Fold Change by LPS + SEQ 7", "setting": "gene Q8IY68", "result": "−2.2", "unit": "fold"},
      {"measurement": "Fold Change by LPS + SEQ 7", "setting": "gene Q8IYM2", "result": 1.7, "unit": "fold"},
      {"measurement": "Fold Change SEQ ID NO: 7", "setting": "gene Q8IYT6", "result": 2.0},
      {"measurement": "Fold Change by LPS + SEQ 7", "setting": "gene Q8IYX7", "result": "−1.7", "unit": "fold"}
    ]}
  ]
}
